In this assay the target is mouse PER2 with mutated CK1-binding domain B (Bd mut PER2) (mouse) (UniProt O54943). The assay is described as follows: co-IP; PER1 or PER2 immunoprecipitated from 75 ug of lysate of transfected HEK293 cells with antibody on Protein G Dynabeads, 30 min at room temperature, washed thrice with PBS-T (0.1% tween-20); immunoblot for CK1ε.

Amino acid sequences for entries named in this document (tags omitted). A change or cut given only in a name is not applied to a line headed by its entry.
UniProt O54943: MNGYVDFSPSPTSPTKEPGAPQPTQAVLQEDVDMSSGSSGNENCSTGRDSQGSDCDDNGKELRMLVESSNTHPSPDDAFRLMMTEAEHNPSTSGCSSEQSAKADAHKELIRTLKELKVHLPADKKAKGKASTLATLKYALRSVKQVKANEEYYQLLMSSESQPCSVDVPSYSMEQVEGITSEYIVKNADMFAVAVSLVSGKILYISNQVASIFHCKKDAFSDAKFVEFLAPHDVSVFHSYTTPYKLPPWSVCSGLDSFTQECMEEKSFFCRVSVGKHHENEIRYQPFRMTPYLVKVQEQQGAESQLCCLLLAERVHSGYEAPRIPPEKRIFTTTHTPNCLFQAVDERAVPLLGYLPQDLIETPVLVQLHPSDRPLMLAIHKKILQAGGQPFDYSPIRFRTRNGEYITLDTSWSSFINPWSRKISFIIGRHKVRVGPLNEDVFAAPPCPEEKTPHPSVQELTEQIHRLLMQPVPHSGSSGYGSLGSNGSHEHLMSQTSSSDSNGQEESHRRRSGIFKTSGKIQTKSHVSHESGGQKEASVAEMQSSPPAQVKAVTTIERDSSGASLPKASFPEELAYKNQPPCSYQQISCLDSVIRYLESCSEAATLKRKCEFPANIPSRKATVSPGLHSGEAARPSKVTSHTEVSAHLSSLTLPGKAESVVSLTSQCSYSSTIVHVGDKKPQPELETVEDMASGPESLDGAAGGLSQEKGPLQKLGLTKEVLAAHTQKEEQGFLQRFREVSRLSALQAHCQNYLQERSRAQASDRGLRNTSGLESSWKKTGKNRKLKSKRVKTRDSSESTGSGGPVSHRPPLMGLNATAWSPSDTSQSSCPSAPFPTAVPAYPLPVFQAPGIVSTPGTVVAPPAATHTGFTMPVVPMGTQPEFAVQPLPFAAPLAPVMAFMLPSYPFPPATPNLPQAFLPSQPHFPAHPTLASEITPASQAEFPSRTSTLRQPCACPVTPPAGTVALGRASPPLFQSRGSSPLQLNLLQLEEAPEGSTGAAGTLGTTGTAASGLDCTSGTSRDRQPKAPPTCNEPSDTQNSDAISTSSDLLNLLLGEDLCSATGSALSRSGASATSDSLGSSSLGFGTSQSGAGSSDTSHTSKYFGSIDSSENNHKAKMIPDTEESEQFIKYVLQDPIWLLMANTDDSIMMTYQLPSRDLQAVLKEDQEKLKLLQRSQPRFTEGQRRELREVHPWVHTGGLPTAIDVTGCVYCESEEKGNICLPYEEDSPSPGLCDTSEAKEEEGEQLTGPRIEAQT
UniProt P49674: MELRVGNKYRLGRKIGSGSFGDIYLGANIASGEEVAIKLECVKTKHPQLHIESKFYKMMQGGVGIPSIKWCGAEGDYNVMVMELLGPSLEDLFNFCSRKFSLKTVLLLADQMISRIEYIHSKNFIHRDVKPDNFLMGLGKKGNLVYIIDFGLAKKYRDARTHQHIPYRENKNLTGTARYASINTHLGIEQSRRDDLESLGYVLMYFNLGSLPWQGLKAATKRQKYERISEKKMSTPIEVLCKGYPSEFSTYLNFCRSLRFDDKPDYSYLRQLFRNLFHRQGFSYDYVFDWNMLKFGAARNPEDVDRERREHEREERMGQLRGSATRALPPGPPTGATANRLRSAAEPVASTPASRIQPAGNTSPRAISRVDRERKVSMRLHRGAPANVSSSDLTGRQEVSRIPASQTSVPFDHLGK

These are yes or no findings as the source states them, for the method shown. In cells and extracts the contact can be indirect.

For “casein kinase 1ε (CK1ε) (from UniProt P49674 1-416) (enzyme)”, the binding result was “no binding”.

For the origin of these results see PMC11223080.
